Test results: publication PMC12040169 (PLOS Biology, 2025)
The other results are listed elsewhere or left out.

Tested on: T1, CTL2-GFP (C. trachomatis L2/434/Bu, GFP-expressing)
T1 construct: L2/434/Bu, GFP-expressing
Set-up: species or system HeLa; Intracellular C. trachomatis growth in HeLa cells, bulk GFP fluorescence relative to DMSO
Details: bulk GFP, single well; 28.5 h, 10 µM; inhibitor

SMILES	% of control remaining
CCNC(=O)N1CC2(CCN(CCOCC)CC2)c2ccccc21 [CBK136972]	113.038%
CC(C)N1CCC(CNC(=O)c2cccc(N3CCCC3=O)c2)CC1 [CBK282641]	106.742%
Cc1sc2ncnc(SCC(=O)Nc3sc4c(c3C#N)CCCC4)c2c1-c1ccccc1 [CBK265938]	137.944%
CN(C(=O)c1cc(S(=O)(=O)N2CCOCC2)ccc1F)C1CCCCC1 [CBK304580]	105.96%
COc1ccc(S(=O)(=O)NCCN2CCOCC2)c(C)c1C [CBK266479]	137.958%
O=C(Cn1cc(C(=O)NCc2ccccc2)ccc1=O)NC1(c2ccccc2)CCCC1 [CBK285753]	112.556%
NCc1oc(-c2ccccc2)cc1C(=O)O [CBK265941C]	119.956%
CC1(C)Cc2c(cnn2-c2ccc(F)cc2)C(NS(C)(=O)=O)C1 (centres unmarked) [CBK307403]	130.195%
CCCC(C)C(=O)Nc1ccncc1 (centres unmarked) [CBK057984]	96.9285%
O=S1(=O)C=C(N2CCCCCC2)CC1 [CBK025571C]	142.421%
CCc1nc2ccc(C(=O)Nc3ccc(NC(C)=O)cc3)cn2c1N(CC)Cc1ccc(OC)c(OC)c1 [CBK146994]	97.9868%
O=c1cc(O)c2ccccc2n1Cc1ccccc1Cl [CBK291255]	133.707%
Nc1ccc(S(=O)(=O)O)c2cccc(S(=O)(=O)O)c12 [CBK261492N]	100%
COc1ccc([C@@]23CC[C@H](NC(=O)CSc4nccn4C)C[C@@H]2N(C)CC3)cc1OC [CBK036444]	155.777%
Cc1ccc(C(=O)Nc2nc(C)c(-c3n[nH]c(=S)n3C)s2)cn1 [CBK295327]	133.999%
O=[N+]([O-])c1ccccc1S(=O)(=O)Nc1ccc(S(=O)(=O)Nc2ccccc2)cc1 [CBK264796]	119.437%
CN1CCN(C(=O)CN(CC(=O)N2CCN(C)CC2)S(=O)(=O)c2ccc(Cl)cc2)CC1 [CBK269627]	119.211%
O=C(CN1CCCC1Cn1cncn1)NCCc1ccsc1 (centres unmarked) [CBK305113]	124.76%
CCN(CC)Cc1ccc(C(=O)N2CCC(c3ccncc3)CC2)o1 [CBK283051]	81.729%
COc1cc(C(c2c(C(=O)O)[nH]c3ccccc23)c2c(C(=O)O)[nH]c3ccccc23)cc(I)c1O [CBK267804]	140.065%
CSCCN1CCC(Oc2nccnc2OCCN2CCOCC2)CC1 [CBK082935]	105.491%
CS(=O)(=O)Nc1cccc2cc[nH]c12 [CBK159509]	92.8808%
CC(C)(C)c1ccc(C(=O)N2CCCCC2CO)cc1 (centres unmarked) [CBK073951]	138.048%
Nc1nc(N2CCCCC2)nc2ccccc12 [CBK012270]	104.889%
Cn1cncc1CN(CCCn1ccnc1)Cc1ccccc1Cl [CBK283041]	137.292%
Cc1nnc(SCC(=O)N2CCN(c3ccc(Cl)cc3)CC2)s1 [CBK307389]	130.374%
CSCCCNC(=O)c1ccc2c(c1)nc(N1CC[C@H](O)C1)n2C [CBK306807]	97.471%

Copied from the list.
For % of control remaining, CSCCCNC(=O)c1ccc2c(c1)nc(N1CC[C@H](O)C1)n2C [CBK306807] has 97.471%
For % of control remaining, CSCCN1CCC(Oc2nccnc2OCCN2CCOCC2)CC1 [CBK082935] has 105.491%

Additional structures follow:

SMILES	% of control remaining
CC(C)C(=O)N1CCC(n2nc(-c3cccs3)ccc2=O)CC1 [CBK284181]	106.895%
COc1ccc(C(=O)N2CCC3(CC2)NC(=O)c2cc(C)ccc2O3)cc1C [CBK166277]	112.964%
CC(C)C1OC(N2CCOCC2)=NC1=O (centres unmarked) [CBK070384]	116.999%
O=C(c1cnccc1C(F)(F)F)N1Cc2ccccc2C1 [CBK200323]	123.16%
O=C(Nc1nc(-c2cccnc2)cs1)c1ccccc1 [CBK287569]	147.783%
CCN(CC)C(=O)c1ccccc1NS(=O)(=O)c1ccc(C)cc1 [CBK045416]	145.107%
Cc1cccn2c(CN3CCCC(O)C3)c(C(=O)N3CCOCC3)nc12 (centres unmarked) [CBK306545]	148.745%
CCc1cc(Br)ccc1S(=O)(=O)NCCOc1ccccc1 [CBK044882]	104.564%
O=C(O)c1ccc(N2C(=O)C3C4C=CC(C4=C(c4ccccc4)c4ccccc4)C3C2=O)cc1 (centres unmarked) [CBK263030]	112.578%
CS(=O)(=O)Nc1nnc(C2CCCCC2)s1 [CBK069540]	105.547%
CCOc1cc(/C=C(/C#N)C(N)=S)ccc1OCC(=O)N1CCCC1 [CBK268765]	137.845%
Cc1cc(C)c2nc(O)nc(O)c2c1 [CBK017986]	130.434%
O=C1CC(c2ccco2)Cc2c1cnn2-c1ccccc1 (centres unmarked) [CBK287860]	116.277%
CN1CCN(c2ccc(-c3cnc(N)c(NC4CCOCC4)n3)cc2)CC1 [CBK064114]	171.701%
CCCc1nnc(SCC(=O)Nc2ccc(CN3CCOCC3)cc2)[nH]1 [CBK305583]	105.792%
CCNC(=O)N[C@H]1CC[C@]2(C)CCC([C@H](C)C(=O)N3CCCCC3)[C@H](O)[C@H]2[C@@H]1C (some centres unmarked) [CBK289455]	119.517%
CCOc1cc(NC2CCN(C(=O)Cc3ccncc3)CC2)ncn1 [CBK304752]	115.672%
Cc1nc(S(=O)(=O)N2CCC3(CCCCC3)C2)cn1C [CBK306306]	100.21%
CCOC(=O)CCc1nc2ccccc2nc1O [CBK264526]	121.547%
O=C1CCCC[C@@H]2[C@@H](N1)[C@H](c1ccccc1)CN2Cc1ccnc2ccccc12 [CBK286280]	128.171%
CC(C)[C@H](CO)Nc1nc(-c2cccc3ccccc23)cnc1N [CBK063701]	83.0447%
CCCc1nn(CC(=O)NC(C)(C)C)c(=O)c2cc3ccsc3n12 [CBK284148]	125.869%
COc1ccc(OCC(F)(F)F)c(C(=O)N2CCSCC2)c1 [CBK005950]	123.908%
c1ccc2c(c1)CCN(Cc1nc3ccccc3[nH]1)C2 [CBK126396]	107.829%
Nc1nc(SCC(=O)c2ccc3c(c2)OCCO3)n[nH]1 [CBK266554]	134.595%
COc1cccc(Oc2cnc(-c3ccc(C(=O)N(C)C)cc3)c(N)n2)c1 [CBK145185]	120.052%
CS(=O)(=O)Nc1cccc(-c2cnc3[nH]c(=O)n(Cc4ccc(S(C)(=O)=O)cc4)c3n2)c1 [CBK065061]	136.05%

SMILES	% of control remaining
O=C(CCN1CCN2CCCCC2C1)N1c2ccccc2Sc2ccc(Cl)cc21 (centres unmarked) [CBK278257F]	102.095%
Cc1cn(C2CC(O)C(CNC(=O)C(F)(F)F)O2)c(=O)[nH]c1=O (centres unmarked) [CBK201200]	152.467%
CCOc1ccc(NC(=O)NC(=O)C2CCN(C(C)=O)CC2)cc1 [CBK034852]	92.192%
Cc1cc(C(=O)NCc2c(-c3ccccc3)noc2C)n[nH]1 [CBK144076]	95.8251%
CN(C)c1nc(N2CCOCC2)c(C#N)c(=O)o1 [CBK007447]	97.5317%
CSc1nc(N)c2c3c(sc2n1)CN(C)CC3 [CBK018303]	102.195%
CC1(C)NC(C)(C)C(=N\O)/C(=N\O)C/1=N\O [CBK261512]	93.1416%
Cc1ccc(C(=O)C2=C(O)C(=O)N(Cc3cccnc3)C2c2cccc([N+](=O)[O-])c2)cc1 (centres unmarked) [CBK264593]	100%
CCN(CC)CCN1CCN(c2cc(-c3cc(C(F)(F)F)cc(C(F)(F)F)c3)ncn2)CC1 [CBK091195]	188.408%
COc1ccccc1-c1c(O)n[nH]c1C(C)C [CBK075133]	83.124%
COc1ccc(NC2=NC(=O)CC(C(=O)Nc3ccc(C)c(C)c3)N2)cc1 (centres unmarked) [CBK269359]	155.028%
CC(C)(C)c1ccc(C(=O)N2CCN(C(=O)CN3CCOCC3)C2)cc1 [CBK051554C]	94.5932%
O=C(CSCc1ccc(Cl)cc1Cl)Nc1c[nH]c(=O)[nH]c1=O [CBK126912]	91.1994%
CC(=O)c1sccc1NS(=O)(=O)c1ccc2ccccc2c1 [CBK200042]	123.961%
CN1C[C@@H](NC(=O)Nc2ccccc2)C[C@H]1c1nc(-c2cccnc2)no1 [CBK288858]	140.548%
CC(C)(C)C(=O)CSc1nnc(-c2ccccn2)s1 [CBK006894]	110.178%
Cc1cccc(-c2csc3c(=O)[nH]c(N4CCC(C(=O)NCc5cccnc5)CC4)nc23)c1 [CBK215624]	137.142%
COc1ccc2[nH]c3c(c2c1)CCNC31CCN(CC(=O)C(C)(C)C)CC1 [CBK039471]	210.728%
CNCc1cn(C[C@H]2CC3CCN2C[C@@H]3C(=O)N2CCCC2)nn1 (some centres unmarked) [CBK289087]	122.903%
CCn1cc(S(=O)(=O)N2CCC3(CC2)OCCO3)cn1 [CBK270321]	83.3061%
COc1cc(NS(=O)(=O)c2ccc(NC(=O)c3cccnc3)cc2)ncn1 [CBK268156]	70.5854%
CCC(=O)c1cccc2c1NC=C1C(=O)CC(C)(C)CC1=N2 [CBK265821]	144.331%
CN1CCCN(c2cncc(-c3ccc(F)c(Cl)c3)n2)CC1 [CBK065297]	154.358%
Cn1nccc1NS(=O)(=O)c1ccc(F)cc1 [CBK050484]	86.2989%
CC(C)CNc1nccnc1-c1cccc(C=O)c1 [CBK088744]	208.339%
CN1CCN(c2ccc(NC(=O)c3cccc(-c4cc5ccccc5oc4=O)c3)cc2Cl)CC1 [CBK269689]	152.242%

Filtered by structure, the compounds so far containing a CF3 group (4)
SMILES	% of control remaining
O=C(c1cnccc1C(F)(F)F)N1Cc2ccccc2C1 [CBK200323]	123.16%
COc1ccc(OCC(F)(F)F)c(C(=O)N2CCSCC2)c1 [CBK005950]	123.908%
Cc1cn(C2CC(O)C(CNC(=O)C(F)(F)F)O2)c(=O)[nH]c1=O (centres unmarked) [CBK201200]	152.467%
CCN(CC)CCN1CCN(c2cc(-c3cc(C(F)(F)F)cc(C(F)(F)F)c3)ncn2)CC1 [CBK091195]	188.408%
